Data source: PubChem BioAssay AID1224826 (NIAID, 2016)

Purpose: 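Knock-downs that raise or lower Tnf reporter signal after endotoxin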 (primary screen)
System: RAW264.7 G9 macrophages from mouse bearing reporters for p65 (GFP) and the Tnf promoter (mCherry)
Reagent: siRNA pool against mouse genes, 100 nM
Time to read-out: 16 h of LPS stimulation, after 2 days of siRNA transfection
Conditions: bacterial lipopolysaccharide (Salmonella minnesota R595), 10 ng/ml
Measured: 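Imaged Tnf reporter mCherry in nuclei, minus background, normalised per plate to the median and expressed as robust z-scores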
Direction: Tnf reporter robust z-score: higher = stronger Tnf promoter reporter signal after LPS; Tnf reporter intensity: higher = stronger Tnf promoter reporter signal
Hit rule: 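a well counts as active at a score of -1.3 or below (Tlr4 knock-down control median) or above 3 (raised signal); controls and wells holding fewer than 50 cells are excluded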
Calls: active = Tnf reporter clearly lowered or raised; inactive = no clear change in Tnf reporter
In all, the deposit lists about 17,000 reagents; below is an unselected part. About 1,110 of all reagents (6.6%) count as active. 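Active means lowered or raised reporter signal; replicate intensities are raw and not normalised per plate.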 Entries without a mark were called inactive. Reagents against one gene are numbered here.

gene | reagent no. | Tnf reporter robust z-score | fewer than 50 cells in well | Tnf reporter intensity, replicate 1 | Tnf reporter intensity, replicate 2
Dbx2 (developing brain homeobox 2) | 1 | 0.71 | enough cells in well | 231 | 225
Gsta2 (glutathione S-transferase, alpha 2 (Yc2)) | 1 | 0.78 | enough cells in well | 297 | 216
Snhg11 (small nucleolar RNA host gene 11) | 1 | 0.54 | enough cells in well | 175 | 210
Klf16 (Kruppel-like transcription factor 16) | 1 | -0.76 | enough cells in well | 174 | 114
Stra6 (stimulated by retinoic acid gene 6) | 1 | – | fewer than 50 cells per well; well left out of calls | 51 | 53.4
Mfsd6 (major facilitator superfamily domain containing 6) | 1 | -0.44 | enough cells in well | 144 | 170
Htr2c (5-hydroxytryptamine (serotonin) receptor 2C) | 1 | 0.19 | enough cells in well | 197 | 370
Tmed9 (transmembrane p24 trafficking protein 9) | 1 | – | fewer than 50 cells per well; well left out of calls | 105 | 38.8
Xcl1 (chemokine (C motif) ligand 1) | 1 | 0.01 | enough cells in well | 205 | 261
Or51f1e (olfactory receptor family 51 subfamily F member 1E) | 1 | -0.63 | enough cells in well | 91.3 | 75.4
Vps4a (vacuolar protein sorting 4A) | 1 | 1.08 | enough cells in well | 144 | 136
Tas2r104 (taste receptor, type 2, member 104) | 1 | – | fewer than 50 cells per well; well left out of calls | 63.3 | 78.1
Eif3h (eukaryotic translation initiation factor 3, subunit H) | 1 | -0.3 | enough cells in well | 202 | 212
Or5g25 (olfactory receptor family 5 subfamily G member 25) | 1 | 0.83 | enough cells in well | 223 | 207
Csnk2a1 (casein kinase 2, alpha 1 polypeptide) | 1 | 1.99 | enough cells in well | 378 | 221
Sphk1 (sphingosine kinase 1) | 1 | -1.08 | enough cells in well | 125 | 97.7
Ttc39a (tetratricopeptide repeat domain 39A) | 1 | – | fewer than 50 cells per well; well left out of calls | 231 | 46.9
A730008H23Rik (RIKEN cDNA A730008H23 gene) | 1 | 0.09 | enough cells in well | 160 | 166
Stxbp4 (syntaxin binding protein 4) | 1 | 1.95 | enough cells in well | 132 | 196
Stxbp4 (syntaxin binding protein 4) | 2 | 0.29 | enough cells in well | 218 | 138
Sec63 (SEC63 homolog, protein translocation regulator) | 1 | 2.73 | enough cells in well | 195 | 193
Sp1 (trans-acting transcription factor 1) | 1 | -0.33 | enough cells in well | 282 | 162
H2-DMb2 (histocompatibility 2, class II, locus Mb2) | 1 | -0.61 | enough cells in well | 141 | 191
Rps6ka2 (ribosomal protein S6 kinase A2) | 1 | 1.94 | enough cells in well | 287 | 301
Smurf2 (SMAD specific E3 ubiquitin protein ligase 2) | 1 | 0.14 | enough cells in well | 161 | 170
Or11j4 (olfactory receptor family 11 subfamily J member 4) | 1 | – | fewer than 50 cells per well; well left out of calls | 84.4 | 43.3
Bsn (bassoon) | 1 | -0.05 | enough cells in well | 93.2 | 160
Ppie (peptidylprolyl isomerase E (cyclophilin E)) | 1 | – | fewer than 50 cells per well; well left out of calls | 193 | 187
Fut2 (fucosyltransferase 2) | 1 | 0.26 | enough cells in well | 304 | 234

Copied from the list.
Value for Dbx2 (developing brain homeobox 2) under “Tnf reporter intensity, replicate 2”: 225
Result for Stxbp4 (syntaxin binding protein 4) #1 under “fewer than 50 cells in well”: enough cells in well
Under “fewer than 50 cells in well”, Xcl1 (chemokine (C motif) ligand 1) reads enough cells in well
For “Tnf reporter robust z-score”, Klf16 (Kruppel-like transcription factor 16) has -0.76

The list goes on:
gene | reagent no. | Tnf reporter robust z-score | fewer than 50 cells in well | Tnf reporter intensity, replicate 1 | Tnf reporter intensity, replicate 2
Tnfrsf12a (tumor necrosis factor receptor superfamily, member 12a) | 1 | -1.87 (active) | enough cells in well | 116 | 31
Pih1d1 (PIH1 domain containing 1) | 1 | 1.44 | enough cells in well | 333 | 130
4933428P19Rik (RIKEN cDNA 4933428P19 gene) | 1 | -0.27 | enough cells in well | 127 | 164
Pou2f2 (POU domain, class 2, transcription factor 2) | 1 | -0.31 | enough cells in well | 99.6 | 133
Gng4 (guanine nucleotide binding protein (G protein), gamma 4) | 1 | -1.29 | enough cells in well | 89 | 224
Nubp1 (nucleotide binding protein 1) | 1 | -0.76 | enough cells in well | 186 | 52.9
Fbxl3 (F-box and leucine-rich repeat protein 3) | 1 | -0.33 | enough cells in well | 216 | 190
Naa15 (N(alpha)-acetyltransferase 15, NatA auxiliary subunit) | 1 | 0.27 | enough cells in well | 291 | 221
Cc2d1a (coiled-coil and C2 domain containing 1A) | 1 | -0.04 | enough cells in well | 182 | 229
Tmsb4x (thymosin, beta 4, X chromosome) | 1 | 0.2 | enough cells in well | 114 | 110
Rchy1 (ring finger and CHY zinc finger domain containing 1) | 1 | 1.69 | enough cells in well | 200 | 202
Iars2 (isoleucine-tRNA synthetase 2, mitochondrial) | 1 | 0.83 | enough cells in well | 209 | 74.5
Chst3 (carbohydrate sulfotransferase 3) | 1 | 1.58 | enough cells in well | 257 | 263
Rfx3 (regulatory factor X, 3 (influences HLA class II expression)) | 1 | -0.74 | enough cells in well | 243 | 147
Cxcl12 (C-X-C motif chemokine ligand 12) | 1 | -0.45 | enough cells in well | 147 | 312
Or5ak22 (olfactory receptor family 5 subfamily AK member 22) | 1 | -0.49 | enough cells in well | 132 | 102
Ece2 (endothelin converting enzyme 2) | 1 | 1.79 | enough cells in well | 338 | 169
Ece2 (endothelin converting enzyme 2) | 2 | 0.91 | enough cells in well | 252 | 437
Sdr16c5 (short chain dehydrogenase/reductase family 16C, member 5) | 1 | 2.36 | enough cells in well | 284 | 175
Atf4 (activating transcription factor 4) | 1 | -0.86 | enough cells in well | 103 | 115
Mtnap1 (mitochondrial nucleoid associated protein 1) | 1 | -1 | enough cells in well | 104 | 136
Fv1 (Friend virus susceptibility 1) | 1 | -0.64 | enough cells in well | 201 | 103
Synm (synemin, intermediate filament protein) | 1 | 0.3 | enough cells in well | 234 | 108
Iqch (IQ motif containing H) | 1 | -0.63 | enough cells in well | 147 | 121
Fam72a (family with sequence similarity 72, member A) | 1 | -0.71 | enough cells in well | 209 | 47.6
Id4 (inhibitor of DNA binding 4) | 1 | 0.75 | enough cells in well | 311 | 224
Slbp (stem-loop binding protein) | 1 | -0.27 | enough cells in well | 232 | 213
Smtnl2 (smoothelin-like 2) | 1 | 0.08 | enough cells in well | 201 | 168
Cpsf3 (cleavage and polyadenylation specificity factor 3) | 1 | -0.43 | enough cells in well | 138 | 171
